Some entries share one result that the patent states for a list of compounds.
Legend:
[1] = system: Wheat scab (Microdochium nivale); test: Test of inhibition of growth of wheat scab mycelium; type: cell-based; conditions: final concentration 10 ppm in PDA medium; 25° C., 2 to 3 days
[2] = system: powdery mildew (Sphaerotheca cucurbitae); test: Test of preventive effect on cucumber powdery mildew; type: in vivo; conditions: 500 ppm test solution sprayed on cucumber seedlings; about ten days after inoculation
[3] = system: wheat powdery mildew (Erysiphe graminis); test: Test of preventive effect on wheat powdery mildew; conditions: 500 ppm test solution sprayed on wheat seedlings; seven days after inoculation
[4] = system: tomato late blight (Phytophthora infestans); type: in vivo; conditions: 500 ppm test solution sprayed on tomato seedlings; five days after inoculation

Molecule | inhibition rate (mycelium growth length) [1] [%] | other results
CCNC=Nc1ccc(C#Cc2ccccc2)cc1C [Compound 2] | 100 | 
CNC=Nc1cc(C)c(C#C[Si](C)(C)C)cc1C [Compound 3] | 100 | 
CCNC=Nc1cc(C)c(C#C[Si](C)(C)C)cc1C [Compound 4] | 100 | 
CN(C)C=Nc1ccc(C#Cc2ccccc2)c(Cl)c1 [Compound 12] | 100 | 
CN(C)C=Nc1ccc(C#C[Si](C)(C)C)c(Cl)c1 [Compound 13] |  | Preventive value [2]: ≥ 50%; Preventive value [3]: ≥ 50%; Preventive value [4]: ≥ 50%
Cc1cc(C#CC2CCCCC2)ccc1N=CN(C)C [Compound 25] | 100 | 
Cc1cc(C#CCc2ccccc2)ccc1N=CN(C)C [Compound 29] | 100 | 
Cc1cc(C#Cc2ccccc2Cl)ccc1N=CN(C)C [Compound 34] | 100 | Preventive value [2]: ≥ 50%; Preventive value [4]: ≥ 50%
Cc1cc(C#Cc2cccc(F)c2)ccc1N=CN(C)C [Compound 36] |  | Preventive value [2]: ≥ 50%; Preventive value [4]: ≥ 50%
Cc1cc(C#Cc2ccc(Cl)cc2)ccc1N=CN(C)C [Compound 39] |  | Preventive value [4]: ≥ 50%
Cc1ccccc1C#Cc1ccc(N=CN(C)C)c(C)c1 [Compound 41] | 100 | 
COc1ccccc1C#Cc1ccc(N=CN(C)C)c(C)c1 [Compound 42] | 100 | 
COc1ccc(C#Cc2ccc(N=CN(C)C)c(C)c2)c(C)c1 [Compound 47] | 100 | 
Cc1cc(N=CN(C)C)c(C)cc1C#CCOc1ccccc1 [Compound 54] | 100 | 
Cc1cc(N=CN(C)C)c(C)cc1C#Cc1ccccc1 [Compound 55] | 100 | 
CCN(C)C=Nc1ccc(C#Cc2ccccc2)cc1Cl [Compound 64] |  | Preventive value [2]: ≥ 50%; Preventive value [3]: ≥ 50%; Preventive value [4]: ≥ 50%
CCN(C)C=Nc1ccc(C#Cc2ccccc2)cc1C [Compound 67] | 100 | 
CCN(C)C=Nc1ccc(C#C[Si](C)(C)C)cc1C [Compound 68] | 100 | 
CCN(C)C=Nc1ccc(C#C[Si](CC)(CC)CC)cc1C [Compound 69] | 100 | 
CCN(C)C=Nc1ccc(C#CC[Si](C)(C)C)cc1C [Compound 70] | 100 | 
CCN(C)C=Nc1ccc(C#Cc2ccccc2)cc1C(F)(F)F [Compound 72] |  | Preventive value [2]: ≥ 50%; Preventive value [4]: ≥ 50%
CCN(C)C=Nc1ccc(C#Cc2ccccc2)c(Cl)c1 [Compound 76] | 100 | 
CCN(C)C=Nc1cc(F)c(C#CC(C)(C)C)cc1F [Compound 78] |  | Preventive value [2]: ≥ 50%; Preventive value [3]: ≥ 50%; Preventive value [4]: ≥ 50%
CCN(C)C=Nc1cc(F)c(C#C[Si](C)(C)C)cc1F [Compound 80] |  | Preventive value [2]: ≥ 50%; Preventive value [3]: ≥ 50%; Preventive value [4]: ≥ 50%
CCN(C)C=Nc1cc(C)c(C#C[Si](C)(C)C)cc1Cl [Compound 86] | 100 | 

Molecule | inhibition rate (mycelium growth length) [1] [%] | other results
CCN(C)C=Nc1cc(Cl)c(C#CC(C)(C)C)cc1C [Compound 91] | 100 | 
CCN(C)C=Nc1cc(Cl)c(C#C[Si](C)(C)C)cc1C [Compound 93] | 100 | 
CCN(C)C=Nc1cc(Cl)c(C#CC[Si](C)(C)C)cc1C [Compound 94] | 100 | 
C#Cc1cc(C)c(N=CN(C)CC)cc1C [Compound 96] | 100 | 
CCCC#Cc1cc(C)c(N=CN(C)CC)cc1C [Compound 97] | 100 | 
CCN(C)C=Nc1cc(C)c(C#CC(C)(C)C)cc1C [Compound 98] | 100 | 
CCN(C)C=Nc1cc(C)c(C#CC2CCCCC2)cc1C [Compound 99] | 100 | 
CCCCCCCCC#Cc1cc(C)c(N=CN(C)CC)cc1C [Compound 100] | 100 | 
CCCCCCCCCC#Cc1cc(C)c(N=CN(C)CC)cc1C [Compound 101] | 100 | 
CCCCCCCCCCCCC#Cc1cc(C)c(N=CN(C)CC)cc1C [Compound 102] | 100 | 
CCN(C)C=Nc1cc(C)c(C#CCCCC#N)cc1C [Compound 104] | 100 | Preventive value [2]: ≥ 50%; Preventive value [3]: ≥ 50%; Preventive value [4]: ≥ 50%
CCN(C)C=Nc1cc(C)c(C#CCOC)cc1C [Compound 105] | 100 | 
CCN(C)C=Nc1cc(C)c(C#CCc2ccccc2)cc1C [Compound 106] | 100 | Preventive value [2]: ≥ 50%; Preventive value [3]: ≥ 50%; Preventive value [4]: ≥ 50%
CCN(C)C=Nc1cc(C)c(C#CCN2C(=O)c3ccccc3C2=O)cc1C [Compound 108] | 100 | 
CCN(C)C=Nc1cc(C)c(C#CCCN2C(=O)c3ccccc3C2=O)cc1C [Compound 109] | 100 | 
CCN(C)C=Nc1cc(C)c(C#Cc2ccccc2Cl)cc1C [Compound 111] | 100 | 
CCN(C)C=Nc1cc(C)c(C#Cc2ccc(Cl)cc2)cc1C [Compound 113] | 100 | 
CCN(C)C=Nc1cc(C)c(C#Cc2ccc(C)cc2)cc1C [Compound 114] | 100 | 
CCCc1ccc(C#Cc2cc(C)c(N=CN(C)CC)cc2C)cc1 [Compound 115] | 100 | 
CCCCc1ccc(C#Cc2cc(C)c(N=CN(C)CC)cc2C)cc1 [Compound 116] | 100 | 
CCN(C)C=Nc1cc(C)c(C#Cc2ccccc2C(F)(F)F)cc1C [Compound 118] | 100 | 
CCN(C)C=Nc1cc(C)c(C#Cc2cccc(C(F)(F)F)c2)cc1C [Compound 119] | 100 | 
CCN(C)C=Nc1cc(C)c(C#Cc2ccc(C(F)(F)F)cc2)cc1C [Compound 120] | 100 | 
CCN(C)C=Nc1cc(C)c(C#Cc2ccc(Oc3ccccc3)cc2)cc1C [Compound 122] |  | Preventive value [2]: ≥ 50%; Preventive value [3]: ≥ 50%
CCN(C)C=Nc1cc(C)c(C#CC[Si](C)(C)C)cc1C [Compound 127] | 100 | 

Molecule | inhibition rate (mycelium growth length) [1] [%] | other results
Cc1cc(N=CN(C)C(C)C)c(C)cc1C#C[Si](C)(C)C [Compound 132] | 100 | 
CCCCN(C)C=Nc1cc(C)c(C#C[Si](C)(C)C)cc1C [Compound 134] | 100 | 
CCN(C=Nc1cc(C)c(C#C[Si](C)(C)C)cc1C)CC [Compound 141] | 100 | 
Cc1cc(N=CN2CCCCC2)c(C)cc1C#CC(C)(C)O [Compound 145] | 100 | 
Cc1cc(C#Cc2ccccc2)ccc1N=CN1CCCCC1 [Compound 146] |  | Preventive value [2]: ≥ 50%; Preventive value [4]: ≥ 50%
Cc1cc(N=CN2CCCCC2)c(C)cc1C#C[Si](C)(C)C [Compound 147] | 100 | 
CCN(C)C=Nc1cc(Cl)c(C#CC[Si](C)(C)C)cc1Cl [Compound 151] | 100 | 
CCN(C)C=Nc1ccc(C#C[Si](C)(C)C)cc1C(F)(F)F [Compound 152] |  | Preventive value [2]: ≥ 50%; Preventive value [4]: ≥ 50%
Cc1cc(N=CN2CCCC2)c(C)cc1C#C[Si](C)(C)C [Compound 153] | 100 | 
CCN(C)C=Nc1cc(F)c(C#CC(C)(C)C)cc1C [Compound 155] | 100 | 
CCN(C)C=Nc1cc(F)c(C#Cc2ccccc2)cc1C [Compound 156] | 100 | 
CCN(C)C=Nc1cc(F)c(C#CC[Si](C)(C)C)cc1C [Compound 157] | 100 | 
CCN(C)C=Nc1cc(F)c(C#C[Si](C)(C)C)cc1C [Compound 158] | 100 | 
CCN(C)C=Nc1cc(C)c(C#C[Si](C)(C)C)cc1C.Cl [Compound 162, N-ethyl-N-methyl-N′-[2,5-dimethyl-4-(2-trimethylsilyl-1-ethynyl)phenyl]formamidine hydrochloride] | 100 | 
CCN(C)C=Nc1cc(C)c(C#C[Si](C)(C)C(C)(C)C)cc1C.Cl [Compound 163] | 100 | 
Cc1cc(N=CN(C)C(C)C)c(C)cc1C#C[Si](C)(C)C(C)(C)C [Compound 171] | 100 | 
CCN(C)C=Nc1cc(Cl)c(C#CC(C)(C)C)cc1C.Cl [Compound 172] | 100 | 
CC1(C)C2CCC1(CS(=O)(=O)O)C(=O)C2.CCN(C)C=Nc1cc(Cl)c(C#CC(C)(C)C)cc1C [Compound 173] | 100 | Preventive value [2]: ≥ 50%
CC1(C)[C@H]2CC[C@]1(CS(=O)(=O)O)C(=O)C2.CCN(C)C=Nc1cc(C)c(C#C[Si](C)(C)C)cc1C [Compound 175] | 100 | Preventive value [2]: ≥ 50%
CCN(C)C=Nc1cc(F)c(C#C[Si](C)(C)C)cc1C.Cl [Compound 176] | 100 | 
CCN(C)C=Nc1cc(F)c(C#Cc2ccccc2)cc1C.Cl [Compound 177] | 100 | 
Cc1cc(N=CN2CCCCC2)c(C)cc1C#C[Si](C)(C)C.Cl [Compound 179] | 100 | 
N-ethyl-N-methyl-N′-[2,5-dimethyl-4-(2-trimethylsilyl-1-ethynyl)phenyl]formamidine (+)-camphorsulfonate [Compound 174] | 100 | Preventive value [2]: ≥ 50%

Reference: patent publication US8785649B2, “Ethynylphenylamidine compound or salt thereof, method for producing same, and fungicide for agricultural and horticultural use” (priority 2010, dated 2014)
